Results deposited as PubChem BioAssay AID720505 (Drosophila RNAi Screening Center, 2013).
Aim: 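Knock-downs that reduce calcium influx once internal stores are emptied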 (primary screen). Cell system: Drosophila S2R+ cells. Knock-down reagent: long dsRNA against Drosophila genes. Conditions: thapsigargin (2 µM) in calcium-free buffer to empty internal stores, then 2 mM calcium added back. Measurement: 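Stores emptied by 2 µM thapsigargin without calcium, then 2 mM calcium re-added; fluo-4 fluorescence followed by FLIPR in 384-well plates, per-well averaged endpoint, raw; two screen passes, some wells retested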. Scale: calcium signal and retest calcium signal: higher = more calcium entry after store depletion. Hit rule: 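Knock-downs counted as hits when calcium entry dropped relative to STIM1 positive and Rho1 negative controls present on each plate; roughly 1500 genes called, with reductions of differing size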. Calls: active = called as lowering calcium entry; inactive = not called.
In all, the deposit lists about 20,000 reagents; this is a random part of those that have a named target and a result. In the full data, about 2,100 (10%) were called active. 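Raw plate signals without normalisation; calls rest on control-based scores that were not deposited; replicate 2 separates called from uncalled poorly.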 Reagents against one gene are numbered here. Names joined by + are all predicted targets of the reagent. Not stated in the record: the amount of reagent, the time to read-out.

target	reagent no.	calcium signal, replicate 1	calcium signal, replicate 2	retest calcium signal, replicate 1	retest calcium signal, replicate 2	call
RpS26	1	73	86.8			active
RpS9	1	67.1	61.4			active
CG3740	1	99.2	178			inactive
Cp16	1	113	84.6			inactive
Tsp42Eo	1	95.6	80.8			inactive
l(3)S084402 (retired record)	1	99.3	89.8			inactive
knk	1	91.8	94.2			inactive
CG3184	1	173	125			inactive
Grl40a	1	91.4	5185			inactive
CG30323	1	85.4	110			inactive
CG3916	1	123	99			inactive
Tfb4	1	176	142			inactive
CG3511	1	174	106			inactive
CG6026	1	118	122			inactive
CG16953	1	172	315			inactive
CG34353	1	82.1	118			inactive
CG34353	2	104	99.6			inactive
CG34353	3	133	95.1			inactive
CG34353	4	132	82.1			inactive
CG34353	5	88	165			inactive
CG14658	1	92.6	93			inactive
CG6271	1	135	131			inactive
CG2854	1	58.6	103			active
CG7069	1	155	270			inactive
CG15861	1	86.8	152			inactive
Mipp2	1	107	105			inactive
kst	1	104	82.9			inactive
Hug	1	158	122			inactive
CG7988	1	207	182			inactive
CG8543	1	121	107			inactive
CG8543	2	104	118			inactive
Dop2R	1	49.4	139			active
Dop2R	2	188	100			inactive
CG9876	1	104	269			inactive
Tango4	1	138	107			inactive
Atg2	1	69.1	146			active
Gpo1	1	156	133			inactive
Acn	1	140	118			inactive
Eglp4	1	127	133			inactive
CG42369	1	96.3	82.4			inactive
Usp16-45	1	162	74			inactive
dar1	1	65.9	112			inactive
RhoL	1	118	152			inactive
CG32278 + CG14963	1	89.8	242			inactive
Dis3	1	125	173			inactive
CG10970	1	124	157			inactive
ATP7	1	72	131			active
Hsepi	1	119	233			inactive
CG42788	1	153	230			inactive
CG42788	2	131	226			inactive
CG42788	3	144	189			inactive
GXIVsPLA2	1	165	119			inactive
SNCF	1	91.1	119			inactive
Tsp	1	74.6	140			inactive
Tsp	2	123	129			inactive
Rph	1	126	103			inactive
CG15130	1	228	80.5			inactive
Pdh	1	110	105			inactive
brv1	1	130	165			inactive
CR12842	1	70.9	112			active
Tcs3	1	87.1	111			inactive
Art2	1	105	115			inactive
CG6870	1	72.5	100			active
Mccc1	1	140	102			inactive
cos	1	67.4	221			active
Socs36E	1	78.7	124	79.5	89.1	inactive
CG11125	1	142	129			inactive
Pfdn5	1	243	231			inactive
CG10147	1	94.3	68.3			inactive
CG13331	1	157	210			inactive
CG7251	1	135	263			inactive
CG17625	1	154	115			inactive
CG30109	1	74.2	112			active
CG3565	1	168	109			inactive
fig	1	139	162			inactive
Tsp96F	1	114	128			inactive
RhoGDI	1	99.4	124			inactive
mRpL38	1	70.5	119			active
Pten	1	108	108			inactive
CG6865	1	101	113			inactive
CG17985	1	119	128			inactive
CG3552	1	69.3	94.6			inactive
Dph2	1	102	118			inactive

Just “calcium signal, replicate 1” (9 entries from above):
CG6870	72.5
Mccc1	140
cos	67.4
Socs36E	78.7
CG11125	142
Pfdn5	243
CG10147	94.3
CG13331	157
CG7251	135
